Source: the supplement of paper PMC10849652
Some of the results follow.

Sequences of proteins named here, by UniProt entry; tags and fusion partners are left off. A change or cut given only in a name is not applied to a line headed by its entry.
UniProt Q96LZ2: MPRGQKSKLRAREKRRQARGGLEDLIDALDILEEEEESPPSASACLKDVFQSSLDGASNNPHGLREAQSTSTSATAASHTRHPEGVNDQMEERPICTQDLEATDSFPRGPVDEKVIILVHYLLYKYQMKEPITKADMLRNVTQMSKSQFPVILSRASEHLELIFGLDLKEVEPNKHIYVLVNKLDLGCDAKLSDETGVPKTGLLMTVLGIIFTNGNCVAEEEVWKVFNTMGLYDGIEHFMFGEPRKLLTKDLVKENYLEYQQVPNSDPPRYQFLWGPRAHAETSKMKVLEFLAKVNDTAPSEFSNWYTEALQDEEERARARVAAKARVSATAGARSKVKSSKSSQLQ
UniProt Q9H8J5: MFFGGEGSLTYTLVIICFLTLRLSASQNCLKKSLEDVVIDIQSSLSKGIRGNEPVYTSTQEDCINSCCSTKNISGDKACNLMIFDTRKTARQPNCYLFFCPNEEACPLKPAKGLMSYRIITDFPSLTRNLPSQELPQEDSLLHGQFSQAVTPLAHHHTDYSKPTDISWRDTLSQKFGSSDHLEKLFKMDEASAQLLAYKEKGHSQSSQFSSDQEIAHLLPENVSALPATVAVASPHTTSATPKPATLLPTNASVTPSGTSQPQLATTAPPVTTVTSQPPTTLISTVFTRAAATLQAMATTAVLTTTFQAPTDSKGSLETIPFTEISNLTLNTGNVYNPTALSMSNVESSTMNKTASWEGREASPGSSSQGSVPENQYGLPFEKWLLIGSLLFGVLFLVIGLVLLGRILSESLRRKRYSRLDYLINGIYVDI
UniProt Q15759, whole entry, looked up: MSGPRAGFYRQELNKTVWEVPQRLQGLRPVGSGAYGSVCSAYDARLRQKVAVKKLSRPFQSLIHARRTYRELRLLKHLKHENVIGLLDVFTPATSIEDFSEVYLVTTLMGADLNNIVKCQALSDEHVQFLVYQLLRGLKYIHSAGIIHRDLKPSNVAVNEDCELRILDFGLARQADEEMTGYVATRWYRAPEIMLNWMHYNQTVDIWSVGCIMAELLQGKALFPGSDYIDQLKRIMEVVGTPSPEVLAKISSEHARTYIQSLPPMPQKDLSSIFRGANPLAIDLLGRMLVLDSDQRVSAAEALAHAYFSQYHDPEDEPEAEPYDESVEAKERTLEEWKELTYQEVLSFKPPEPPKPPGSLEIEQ
UniProt P10636, whole entry, looked up: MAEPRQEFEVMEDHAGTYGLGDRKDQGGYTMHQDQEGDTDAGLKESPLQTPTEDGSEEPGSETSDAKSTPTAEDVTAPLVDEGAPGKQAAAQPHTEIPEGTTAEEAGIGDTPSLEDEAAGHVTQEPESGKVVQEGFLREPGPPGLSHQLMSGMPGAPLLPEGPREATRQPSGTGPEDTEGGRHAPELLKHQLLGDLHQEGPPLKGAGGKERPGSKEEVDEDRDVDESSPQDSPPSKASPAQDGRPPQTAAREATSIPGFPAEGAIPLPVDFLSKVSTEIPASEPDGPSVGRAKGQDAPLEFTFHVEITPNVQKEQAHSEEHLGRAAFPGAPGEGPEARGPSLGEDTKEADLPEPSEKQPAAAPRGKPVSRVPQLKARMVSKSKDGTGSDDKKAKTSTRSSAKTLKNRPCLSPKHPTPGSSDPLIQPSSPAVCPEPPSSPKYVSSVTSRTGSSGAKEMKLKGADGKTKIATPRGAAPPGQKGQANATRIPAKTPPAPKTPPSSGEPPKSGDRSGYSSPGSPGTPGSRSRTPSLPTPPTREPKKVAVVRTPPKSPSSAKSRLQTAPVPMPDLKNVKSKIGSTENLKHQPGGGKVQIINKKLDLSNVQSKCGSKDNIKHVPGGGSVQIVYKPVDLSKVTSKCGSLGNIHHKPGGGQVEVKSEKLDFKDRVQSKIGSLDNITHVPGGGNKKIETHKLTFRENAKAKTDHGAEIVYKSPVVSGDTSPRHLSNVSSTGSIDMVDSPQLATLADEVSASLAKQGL
UniProt Q9BPZ7, whole entry, looked up: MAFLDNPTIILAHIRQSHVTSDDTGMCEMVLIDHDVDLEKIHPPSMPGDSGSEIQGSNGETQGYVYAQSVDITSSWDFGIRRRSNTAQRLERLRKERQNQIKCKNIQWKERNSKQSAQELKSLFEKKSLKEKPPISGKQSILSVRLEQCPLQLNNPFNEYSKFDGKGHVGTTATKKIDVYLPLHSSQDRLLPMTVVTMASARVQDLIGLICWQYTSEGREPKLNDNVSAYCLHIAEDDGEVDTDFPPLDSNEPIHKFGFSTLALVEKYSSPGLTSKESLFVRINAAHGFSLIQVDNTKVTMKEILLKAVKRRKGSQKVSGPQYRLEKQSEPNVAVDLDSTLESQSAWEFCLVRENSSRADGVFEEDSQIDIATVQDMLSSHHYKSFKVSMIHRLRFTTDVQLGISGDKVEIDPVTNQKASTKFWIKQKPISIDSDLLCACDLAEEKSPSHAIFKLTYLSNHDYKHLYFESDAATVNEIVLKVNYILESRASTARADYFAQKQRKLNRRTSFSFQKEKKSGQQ
UniProt Q86X29: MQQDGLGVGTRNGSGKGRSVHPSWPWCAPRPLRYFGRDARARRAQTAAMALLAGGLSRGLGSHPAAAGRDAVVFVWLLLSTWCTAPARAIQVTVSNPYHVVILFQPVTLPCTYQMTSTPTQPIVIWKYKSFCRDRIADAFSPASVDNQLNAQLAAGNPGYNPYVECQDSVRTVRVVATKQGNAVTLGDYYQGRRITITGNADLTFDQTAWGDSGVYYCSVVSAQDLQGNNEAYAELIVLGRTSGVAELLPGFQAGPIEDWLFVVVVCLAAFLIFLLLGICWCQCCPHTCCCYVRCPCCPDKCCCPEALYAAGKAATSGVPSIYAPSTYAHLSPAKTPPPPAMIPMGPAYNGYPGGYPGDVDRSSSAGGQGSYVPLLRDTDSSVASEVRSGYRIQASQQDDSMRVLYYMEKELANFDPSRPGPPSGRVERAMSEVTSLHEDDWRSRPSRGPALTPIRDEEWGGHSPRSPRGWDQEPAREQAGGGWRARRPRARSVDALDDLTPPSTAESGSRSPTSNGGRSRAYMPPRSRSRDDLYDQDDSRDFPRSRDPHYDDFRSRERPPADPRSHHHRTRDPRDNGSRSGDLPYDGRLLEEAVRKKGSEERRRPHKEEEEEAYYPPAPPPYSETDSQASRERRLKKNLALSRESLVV
UniProt Q969L4: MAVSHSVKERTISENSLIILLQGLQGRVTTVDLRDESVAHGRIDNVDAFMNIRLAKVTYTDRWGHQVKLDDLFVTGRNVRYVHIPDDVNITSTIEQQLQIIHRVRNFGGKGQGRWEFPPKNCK
UniProt Q9UPY8, whole entry, looked up: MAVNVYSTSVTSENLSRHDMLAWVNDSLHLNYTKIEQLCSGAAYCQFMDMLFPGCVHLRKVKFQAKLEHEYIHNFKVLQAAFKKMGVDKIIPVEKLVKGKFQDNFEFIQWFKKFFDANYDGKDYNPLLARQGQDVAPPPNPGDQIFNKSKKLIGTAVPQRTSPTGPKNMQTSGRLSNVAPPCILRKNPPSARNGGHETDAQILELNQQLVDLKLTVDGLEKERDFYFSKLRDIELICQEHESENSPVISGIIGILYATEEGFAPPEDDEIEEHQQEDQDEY
UniProt Q5TCQ9: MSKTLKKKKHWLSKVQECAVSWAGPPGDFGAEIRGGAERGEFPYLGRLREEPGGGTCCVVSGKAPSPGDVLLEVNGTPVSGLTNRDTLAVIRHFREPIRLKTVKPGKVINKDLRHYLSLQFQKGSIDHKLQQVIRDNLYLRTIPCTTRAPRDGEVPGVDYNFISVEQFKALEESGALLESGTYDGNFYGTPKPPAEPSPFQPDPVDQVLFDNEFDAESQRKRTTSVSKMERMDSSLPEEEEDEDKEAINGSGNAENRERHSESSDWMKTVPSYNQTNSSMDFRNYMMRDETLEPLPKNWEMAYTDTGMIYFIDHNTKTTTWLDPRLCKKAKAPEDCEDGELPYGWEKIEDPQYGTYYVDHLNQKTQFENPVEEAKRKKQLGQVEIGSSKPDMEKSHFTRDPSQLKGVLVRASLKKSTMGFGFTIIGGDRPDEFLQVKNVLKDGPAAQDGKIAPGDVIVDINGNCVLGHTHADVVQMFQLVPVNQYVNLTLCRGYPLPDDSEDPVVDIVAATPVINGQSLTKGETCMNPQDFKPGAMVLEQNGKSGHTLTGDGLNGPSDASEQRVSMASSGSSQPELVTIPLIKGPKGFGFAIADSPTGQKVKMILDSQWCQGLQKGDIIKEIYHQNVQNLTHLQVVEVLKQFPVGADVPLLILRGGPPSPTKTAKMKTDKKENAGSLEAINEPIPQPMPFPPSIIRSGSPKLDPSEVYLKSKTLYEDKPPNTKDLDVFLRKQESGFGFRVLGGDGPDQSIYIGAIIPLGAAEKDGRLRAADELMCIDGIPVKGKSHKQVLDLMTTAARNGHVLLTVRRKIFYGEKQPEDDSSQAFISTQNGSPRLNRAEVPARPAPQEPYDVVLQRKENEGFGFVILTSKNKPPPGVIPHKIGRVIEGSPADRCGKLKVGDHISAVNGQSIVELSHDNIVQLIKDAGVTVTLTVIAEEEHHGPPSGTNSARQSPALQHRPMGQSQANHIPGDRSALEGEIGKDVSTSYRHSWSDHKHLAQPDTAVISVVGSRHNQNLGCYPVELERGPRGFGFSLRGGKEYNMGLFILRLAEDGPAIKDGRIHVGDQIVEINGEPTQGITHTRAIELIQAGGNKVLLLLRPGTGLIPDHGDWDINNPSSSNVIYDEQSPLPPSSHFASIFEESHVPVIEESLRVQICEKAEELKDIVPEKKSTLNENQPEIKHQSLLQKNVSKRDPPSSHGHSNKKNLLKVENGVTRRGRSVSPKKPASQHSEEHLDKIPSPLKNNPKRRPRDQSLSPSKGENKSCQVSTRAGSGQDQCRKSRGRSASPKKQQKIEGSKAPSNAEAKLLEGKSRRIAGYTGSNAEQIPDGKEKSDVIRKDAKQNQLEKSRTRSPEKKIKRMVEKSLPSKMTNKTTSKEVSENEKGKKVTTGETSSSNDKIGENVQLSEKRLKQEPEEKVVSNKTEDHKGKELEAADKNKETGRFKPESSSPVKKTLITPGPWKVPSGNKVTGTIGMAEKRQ
UniProt Q9H089: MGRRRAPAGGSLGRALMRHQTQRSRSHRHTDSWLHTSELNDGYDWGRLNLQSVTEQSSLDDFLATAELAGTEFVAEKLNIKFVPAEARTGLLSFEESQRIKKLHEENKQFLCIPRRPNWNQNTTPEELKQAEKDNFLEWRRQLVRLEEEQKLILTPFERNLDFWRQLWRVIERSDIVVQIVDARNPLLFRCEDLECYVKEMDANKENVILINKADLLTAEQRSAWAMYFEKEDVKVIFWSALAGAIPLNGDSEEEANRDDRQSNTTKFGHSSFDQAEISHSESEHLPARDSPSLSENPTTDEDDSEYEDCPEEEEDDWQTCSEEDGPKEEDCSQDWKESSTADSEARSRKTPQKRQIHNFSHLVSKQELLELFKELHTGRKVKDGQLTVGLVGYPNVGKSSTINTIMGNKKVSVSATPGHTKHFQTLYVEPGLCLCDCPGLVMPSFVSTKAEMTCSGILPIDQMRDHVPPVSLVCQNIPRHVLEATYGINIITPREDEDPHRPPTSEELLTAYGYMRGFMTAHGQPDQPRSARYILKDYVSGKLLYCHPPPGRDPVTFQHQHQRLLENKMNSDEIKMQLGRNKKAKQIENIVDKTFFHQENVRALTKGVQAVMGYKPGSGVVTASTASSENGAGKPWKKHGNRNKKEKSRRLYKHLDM
UniProt Q32MZ4: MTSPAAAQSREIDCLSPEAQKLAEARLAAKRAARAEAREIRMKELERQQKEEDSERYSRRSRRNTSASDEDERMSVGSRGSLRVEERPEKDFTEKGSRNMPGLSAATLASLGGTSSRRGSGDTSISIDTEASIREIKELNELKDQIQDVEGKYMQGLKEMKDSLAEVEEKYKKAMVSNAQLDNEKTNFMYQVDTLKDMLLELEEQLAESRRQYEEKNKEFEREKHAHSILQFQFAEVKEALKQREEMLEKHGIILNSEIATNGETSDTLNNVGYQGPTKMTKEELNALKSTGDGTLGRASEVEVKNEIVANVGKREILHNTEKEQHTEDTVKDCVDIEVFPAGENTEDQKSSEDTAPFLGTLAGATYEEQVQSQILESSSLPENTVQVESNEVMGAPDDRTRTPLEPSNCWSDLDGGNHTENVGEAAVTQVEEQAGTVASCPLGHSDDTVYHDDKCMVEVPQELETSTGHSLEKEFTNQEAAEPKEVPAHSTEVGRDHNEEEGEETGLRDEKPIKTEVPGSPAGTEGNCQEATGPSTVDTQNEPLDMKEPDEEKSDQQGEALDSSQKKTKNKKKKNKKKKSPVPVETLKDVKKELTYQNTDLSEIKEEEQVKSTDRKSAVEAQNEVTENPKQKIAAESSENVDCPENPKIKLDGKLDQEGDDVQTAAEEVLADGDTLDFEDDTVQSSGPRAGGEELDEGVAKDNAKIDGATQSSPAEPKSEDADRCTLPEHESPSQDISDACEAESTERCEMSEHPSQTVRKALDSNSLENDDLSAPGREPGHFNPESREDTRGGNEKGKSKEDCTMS
UniProt O15525: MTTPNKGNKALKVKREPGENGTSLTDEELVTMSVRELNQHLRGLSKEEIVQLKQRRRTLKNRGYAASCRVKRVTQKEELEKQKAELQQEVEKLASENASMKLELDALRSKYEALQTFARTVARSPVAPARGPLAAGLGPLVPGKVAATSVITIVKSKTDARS

Key:
Assay in all cases: log2 fold change, soluble protein after heating vs DMSO (PISA); higher = thermal stabilisation; K562 cells, 10 uM, 30 min; active = over 0.2 and 3.5 SD of the protein, either way, in both replicates (recomputed)
[1] = compound: C1=CC=C(C=C1)[C@H](COC2=CC3=C(C=C2)NC(=O)N3)NC(=O)C4=CC=CN(C4=O)CC5=CC(=C(C=C5)F)F
Outline: (§1)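 K562 cells at 2×10^6 cells/mL were treated with 10 μM compound for 30 min. Aliquots were heated for 3 min across 48°C-58°C, pooled, and extracted in PBS with 0.5% NP-40 at 4°C; soluble protein was the supernatant after 21,000xg for 90 min. Soluble protein was quantified by TMTpro 16plex LC-MS/MS with channel sums equalised, and reported as log2 fold change in thermal stability against DMSO controls, with values from duplicates.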

[2] = compound: CC1=C(SC2=C1C(=N[C@H](C3=NN=C(N32)C)CC(=O)N)C4=CC=C(C=C4)Cl)C
Outline: as §1

[3] = compound: CC1=C2C(=CC=C1)N=C(N(C2=O)C3=CC=CC=C3C)CN4C=NC5=C(N=CN=C54)N
Outline: as §1

[4] = compound: Cc1sc2c(c1C)C(c1ccc(Cl)cc1)=N[C@@H](CC(=O)OC(C)(C)C)c1nnc(C)n1-2
Outline: as §1

[5] = compound: c1ccc([C@@H]2C[C@H]2NC2CCNCC2)cc1
Outline: as §1

Measured: log2 fold change

MARCKS (UniProt P29966)
inactive: [1] 0 | [2] -0.046 | [3] -0.066 | [4] -0.065 | [5] 0.031

MADD isoform 2 (UniProt Q8WXG6)
inactive: [1] -0.148 | [2] -0.143 | [4] 0.118 | [5] -0.189

LTA4H (UniProt P09960)
inactive: [1] -0.024 | [2] 0.128 | [3] 0.053 | [4] 0.01 | [5] -0.067

MAK16 (UniProt Q9BXY0)
inactive: [1] 0.017 | [2] -0.103 | [3] -0.21 | [4] 0.049 | [5] 0

LSM7 (UniProt Q9UK45)
inactive: [1] -0.015 | [2] 0.042 | [3] 0.033 | [4] -0.023 | [5] -0.002

MAP2K3 isoform 3 (UniProt P46734)
inactive: [1] -0.091 | [2] -0.051 | [3] 0.05 | [4] 0.026 | [5] 0.016

MARK2 (UniProt E9PC69)
inactive: [1] -0.029 | [2] 0.038 | [3] 0.174 | [4] 0.126 | [5] -0.052

MAP1S (UniProt Q66K74)
inactive: [1] -0.028 | [2] 0.054 | [3] 0.012 | [4] 0.064 | [5] -0.028

MAFF (UniProt Q9ULX9)
inactive: [1] 0.06 | [3] 0.023

LSM14A, A0A140TA76
inactive: [3] 0.023 | [4] -0.113

MAP4K4 isoform 6 (UniProt O95819)
inactive: [2] 0.177 | [3] 0.049 | [4] -0.037 | [5] 0.076

MAGEB10 (UniProt Q96LZ2)
inactive: [2] -0.195 | [3] -0.211 | [4] 0.268 | [5] -0.025

MAP3K3 isoform 2 (UniProt Q99759)
inactive: [2] 0.106 | [3] 0.048 | [4] 0.104 | [5] -0.023

LYN isoform 2 (UniProt P07948)
inactive: [2] 0.018 | [3] -0.097 | [5] 0.033

MANSC1 (UniProt Q9H8J5)
inactive: [2] 0 | [4] 0.122 | [5] -0.036

MAPK11 (UniProt Q15759)
inactive: [4] -0.014

LSR (UniProt M0QZL9)
inactive: [3] 0.054

MAP4K3 (UniProt Q8IVH8)
inactive: [1] 0.459 | [3] 0.072

LYST (UniProt Q99698)
inactive: [1] 0.003 | [3] 0.417

LRRC8D (UniProt Q7L1W4)
inactive: [2] -0.21 | [3] -0.092 | [4] 0.213 | [5] -0.048

MAGED1 isoform 2 (UniProt Q9Y5V3)
inactive: [2] 0.031 | [3] 0.148 | [5] -0.01

MAP2K5 (UniProt Q13163)
inactive: [2] 0.053 | [5] -0.034

MAP3K10 (UniProt Q02779)
inactive: [1] -0.021 | [3] 0.111 | [4] -0.182

MAPT isoform 9 (UniProt P10636)
inactive: [1] -0.036 | [3] 0.142

MAML1 (UniProt Q92585)
inactive: [2] 0.018 | [3] 0.15 | [5] 0.077

MAPKAP1 (UniProt Q9BPZ7)
inactive: [4] -0.504

MAP3K20 isoform 2 (UniProt Q9NYL2)
inactive: [4] -0.033

LSR isoform 3 (UniProt Q86X29)
inactive: [2] -0.073 | [4] -0.067 | [5] -0.101

LSM10 (UniProt Q969L4)
inactive: [1] -0.023 | [4] 0.034

MAPRE3 isoform 2 (UniProt Q9UPY8)
inactive: [2] 0.033 | [4] 0.279 | [5] 0.017

MAGI3 isoform 1 (UniProt Q5TCQ9)
inactive: [1] -0.007 | [3] 0.053 | [4] 0.029

MAD2L2 (UniProt Q9UI95)
inactive: [2] 0.166 | [5] -0.003

LSG1 (UniProt Q9H089)
inactive: [2] -0.093 | [3] 0.013 | [4] 0.136 | [5] -0.012

LRRFIP1 isoform 4 (UniProt Q32MZ4)
inactive: [2] -0.204 | [5] 0.009

LRRC8C (UniProt Q8TDW0)
inactive: [2] -0.024 | [5] 0.067

MAFG (UniProt O15525)
inactive: [2] -0.024 | [3] -0.137 | [5] 0.003

LRRCC1 (UniProt Q9C099)
inactive: [4] 0.046

10 consecutive records from above:
LSR isoform 3 (UniProt Q86X29)
inactive: [2] -0.073 | [4] -0.067 | [5] -0.101

LSM10 (UniProt Q969L4)
inactive: [1] -0.023 | [4] 0.034

MAPRE3 isoform 2 (UniProt Q9UPY8)
inactive: [2] 0.033 | [4] 0.279 | [5] 0.017

MAGI3 isoform 1 (UniProt Q5TCQ9)
inactive: [1] -0.007 | [3] 0.053 | [4] 0.029

MAD2L2 (UniProt Q9UI95)
inactive: [2] 0.166 | [5] -0.003

LSG1 (UniProt Q9H089)
inactive: [2] -0.093 | [3] 0.013 | [4] 0.136 | [5] -0.012

LRRFIP1 isoform 4 (UniProt Q32MZ4)
inactive: [2] -0.204 | [5] 0.009

LRRC8C (UniProt Q8TDW0)
inactive: [2] -0.024 | [5] 0.067

MAFG (UniProt O15525)
inactive: [2] -0.024 | [3] -0.137 | [5] 0.003

LRRCC1 (UniProt Q9C099)
inactive: [4] 0.046

Additional entries.

LUM (UniProt P51884)
inactive: [2] -0.05 | [3] 0.087 | [4] 0.144 | [5] 0.143

LSM11 (UniProt P83369)
inactive: [2] -0.094 | [5] 0.012

MAN2B2 (UniProt Q9Y2E5)
inactive: [1] 0.097 | [3] 0.096 | [4] 0.074

LTBP4 (UniProt Q8N2S1)
inactive: [2] 0.095 | [4] -0.015 | [5] 0.113
